# At least one read-out could not be matched to a standard name with certainty.
# Target: T1, Lp-PLA2 (human recombinant enzyme as the source of enzyme) (Homo sapiens, UniProt Q13093)
# T1 sequence (Q13093 22-441): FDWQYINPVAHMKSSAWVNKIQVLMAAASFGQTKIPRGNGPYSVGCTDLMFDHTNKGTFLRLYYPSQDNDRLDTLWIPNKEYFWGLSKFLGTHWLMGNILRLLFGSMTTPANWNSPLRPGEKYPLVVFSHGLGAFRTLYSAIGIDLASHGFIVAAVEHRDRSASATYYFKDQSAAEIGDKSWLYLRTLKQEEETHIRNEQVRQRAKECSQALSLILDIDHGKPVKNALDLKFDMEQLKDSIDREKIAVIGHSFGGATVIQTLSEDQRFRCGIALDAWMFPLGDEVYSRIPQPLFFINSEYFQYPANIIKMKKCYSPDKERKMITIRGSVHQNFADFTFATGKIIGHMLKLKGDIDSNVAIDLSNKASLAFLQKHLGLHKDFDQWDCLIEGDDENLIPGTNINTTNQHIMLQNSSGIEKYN
# Assay: In vitro inhibitory activity on Lp-PLA2, human recombinant enzyme (2-thio-PAF/DTNB)
# Type: biochemical
# Details: 10 nM compound
# Experimental: 0.1M Tris-HCl, 1 mM EGTA, PH 7.2
# Anhydrous ethanol was used as solvent to make a 25 mg/ml mother liquor. The solution was aliquoted, stored at −80° C. and diluted 900 times before use (about 50 μM of concentration)
# 3) DTNB (5,5′-dithio-bis-(2-nitrobenzoic acid), Sigma, Lot D8130)
# The solution was prepared just before use.
# 4) Compound was dissolved in DMSO to a suitable concentration.
# Lp-PLA2 activity was determined by using 2-thio-PAF as substrate. The thiol group produced upon the hydrolysis of 2-thio-PAF can react with DTNB to generate a yellow substance. The optical density at 414 nm can be detected to reflect Lp-PLA2 activity.
# 1.2 Determination of the Inhibitory Activity of the Compounds on Lp-PLA2 (Human Recombinant Enzyme as the Source of Enzyme) (In Vitro)
# 1) The corresponding reagents were added according to Table 3 and mixed uniformly by shaking.
# 2) 10 μL of DTNB was added to each well.
# 3) 150 μL of 2-thio-PAF was added to each well and shaken for 15 s on a microplate reader to mix the liquid in the well uniformly.
smiles,measurement,value
"Cn1c(N2CCOCC2)cc(OCCc2cc(F)c(Oc3ccc(Cl)c(C(F)(F)F)c3)c(F)c2)nc1=O [Example 5, 4-(4-(4-chloro-3-(trifluoromethyl)phenoxy)-3,5-difluorophenethyloxy)-1-methyl-6-morpholinopyrimidin-2(1H)-one]","inhibitory ratio, % on Lp-PLA2 (human recombinant enzyme as the source of enzyme)",92.43%
